# Assay results taken from article doi:10.1101/2025.01.05.631328 (bioRxiv, 2025).
# Results are given in words; binding and its absence hold for the method and conditions named. In cells and extracts the contact can be indirect. Some results given as binding are weak or reduced against the parent protein; the word gives no strength.
# B1: MISO isoform 2 (short isoform of human C3orf33) (protein, UniProt Q6P1S2 44-294)
# chain: MAIAGIMLLLRSIRLTSKFTSSSDIPVEFIRRNVKLRGRLRRITENGLEIEHIPITLPIIASLRKEPRGALLVKLAGVELAETGKAWLQKELKPSQLLWFQLLGKENSALFCYLLVSKGGYFSVNLNEEILRRGLGKTVLVKGLKYDSKIYWTVHRNLLKAELTALKKGEGIWKEDSEKESYLEKFKDSWREIWKKDSFLKTTGSDFSLKKESYYEKLKRTYEIWKDNMNNCSLILKFRELISRINFRRKG
# Target: MISO isoform 2 (short isoform of human C3orf33) (human) (UniProt Q6P1S2)
# Test: cross-linking
binder,measurement,value
B1,binding,binds
